Some of the results follow.
How the values were obtained:
Experiment in all cases: log2 fold change, soluble protein after heating vs DMSO (PISA); higher = thermal stabilisation; K562 lysate, 10 uM; active = over 0.2 and 3.5 SD of the protein, either way, in both replicates (recomputed)
[1] = compound: C#Cc1cccc(Nc2ncnc3cc(OCCOC)c(OCCOC)cc23)c1 [erlotinib]
How it was run: (§1)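 Pellets of K562 cells were dounce-homogenised in PBS pH 7.4 with 1 mM MgCl2, and the crude extract was held at 1 mg/mL protein for a 30 min treatment with 10 μM compound. Aliquots were heated for 3 min over 48°C-58°C and pooled before NP-40 was added to 0.5% at 4°C. The supernatant from 21,000xg for 90 min was quantified by TMTpro 16plex LC-MS/MS with channel sums equalised. Values are reported from duplicates as log-two fold change in thermal stability relative to solvent controls.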

Chains of the proteins cited; added tags and fusions are not shown. Lines headed by an entry give the natural chain unless they say otherwise; changes in a name come on top.
UniProt Q8WVM0: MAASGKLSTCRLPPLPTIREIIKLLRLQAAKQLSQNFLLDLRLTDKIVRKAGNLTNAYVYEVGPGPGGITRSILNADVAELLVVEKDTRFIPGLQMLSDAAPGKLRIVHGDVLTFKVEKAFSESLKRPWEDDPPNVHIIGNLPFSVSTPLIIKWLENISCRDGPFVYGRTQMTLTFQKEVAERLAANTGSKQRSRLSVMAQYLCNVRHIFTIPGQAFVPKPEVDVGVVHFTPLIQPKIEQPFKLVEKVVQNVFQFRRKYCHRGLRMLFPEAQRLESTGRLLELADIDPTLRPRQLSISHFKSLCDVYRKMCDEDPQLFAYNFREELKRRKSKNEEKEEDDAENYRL
UniProt Q9UP52: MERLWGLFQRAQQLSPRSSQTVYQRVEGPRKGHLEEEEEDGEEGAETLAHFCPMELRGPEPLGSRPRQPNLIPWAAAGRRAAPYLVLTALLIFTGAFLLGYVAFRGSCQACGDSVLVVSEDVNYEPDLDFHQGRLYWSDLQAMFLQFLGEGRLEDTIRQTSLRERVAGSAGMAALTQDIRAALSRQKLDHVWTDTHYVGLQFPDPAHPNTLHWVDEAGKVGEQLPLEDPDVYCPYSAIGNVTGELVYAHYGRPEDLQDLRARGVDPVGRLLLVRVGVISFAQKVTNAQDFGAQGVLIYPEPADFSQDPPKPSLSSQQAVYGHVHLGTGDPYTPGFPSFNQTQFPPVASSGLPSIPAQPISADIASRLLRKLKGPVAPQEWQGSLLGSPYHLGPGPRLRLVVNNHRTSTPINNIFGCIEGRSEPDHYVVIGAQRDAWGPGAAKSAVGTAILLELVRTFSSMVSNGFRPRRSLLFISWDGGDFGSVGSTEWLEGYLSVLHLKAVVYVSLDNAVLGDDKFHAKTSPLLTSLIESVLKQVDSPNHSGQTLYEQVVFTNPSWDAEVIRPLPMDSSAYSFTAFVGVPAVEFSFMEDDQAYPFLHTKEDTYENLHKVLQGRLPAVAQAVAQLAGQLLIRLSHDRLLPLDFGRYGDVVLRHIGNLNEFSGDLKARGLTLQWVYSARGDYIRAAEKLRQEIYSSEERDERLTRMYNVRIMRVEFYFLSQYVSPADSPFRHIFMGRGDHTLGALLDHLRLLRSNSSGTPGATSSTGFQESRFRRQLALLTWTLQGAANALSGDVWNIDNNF
UniProt Q9Y4P3: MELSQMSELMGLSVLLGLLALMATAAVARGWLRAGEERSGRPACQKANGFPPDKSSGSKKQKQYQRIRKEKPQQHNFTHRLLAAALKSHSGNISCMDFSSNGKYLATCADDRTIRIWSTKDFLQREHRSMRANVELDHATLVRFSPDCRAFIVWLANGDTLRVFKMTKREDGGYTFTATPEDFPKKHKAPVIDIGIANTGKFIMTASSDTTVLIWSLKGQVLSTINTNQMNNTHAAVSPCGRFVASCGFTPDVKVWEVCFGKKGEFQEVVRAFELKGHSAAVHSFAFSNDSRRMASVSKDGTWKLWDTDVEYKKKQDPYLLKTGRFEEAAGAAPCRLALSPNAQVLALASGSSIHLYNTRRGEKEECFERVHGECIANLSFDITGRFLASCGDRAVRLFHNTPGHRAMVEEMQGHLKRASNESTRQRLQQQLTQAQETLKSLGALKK
UniProt A2RTX5: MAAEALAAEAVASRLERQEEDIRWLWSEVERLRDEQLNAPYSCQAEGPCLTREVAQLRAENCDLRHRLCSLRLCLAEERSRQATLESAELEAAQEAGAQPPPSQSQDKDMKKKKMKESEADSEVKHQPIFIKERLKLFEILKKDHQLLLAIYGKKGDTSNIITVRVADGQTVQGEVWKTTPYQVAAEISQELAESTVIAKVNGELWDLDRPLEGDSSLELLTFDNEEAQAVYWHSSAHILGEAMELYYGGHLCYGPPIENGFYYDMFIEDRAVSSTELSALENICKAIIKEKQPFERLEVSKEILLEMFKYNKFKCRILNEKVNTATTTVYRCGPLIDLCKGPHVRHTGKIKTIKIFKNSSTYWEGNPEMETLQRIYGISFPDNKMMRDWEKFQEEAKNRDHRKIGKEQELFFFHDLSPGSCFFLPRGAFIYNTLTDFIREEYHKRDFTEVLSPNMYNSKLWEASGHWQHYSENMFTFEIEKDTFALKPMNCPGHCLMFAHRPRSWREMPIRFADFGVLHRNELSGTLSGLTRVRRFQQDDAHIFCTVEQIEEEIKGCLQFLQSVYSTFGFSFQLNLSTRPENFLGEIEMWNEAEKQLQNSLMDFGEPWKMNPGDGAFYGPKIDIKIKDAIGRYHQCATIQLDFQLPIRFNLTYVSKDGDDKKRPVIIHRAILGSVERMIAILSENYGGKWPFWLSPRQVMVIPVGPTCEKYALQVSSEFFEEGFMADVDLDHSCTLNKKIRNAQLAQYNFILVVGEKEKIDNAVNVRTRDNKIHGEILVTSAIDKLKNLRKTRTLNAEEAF
UniProt Q15813: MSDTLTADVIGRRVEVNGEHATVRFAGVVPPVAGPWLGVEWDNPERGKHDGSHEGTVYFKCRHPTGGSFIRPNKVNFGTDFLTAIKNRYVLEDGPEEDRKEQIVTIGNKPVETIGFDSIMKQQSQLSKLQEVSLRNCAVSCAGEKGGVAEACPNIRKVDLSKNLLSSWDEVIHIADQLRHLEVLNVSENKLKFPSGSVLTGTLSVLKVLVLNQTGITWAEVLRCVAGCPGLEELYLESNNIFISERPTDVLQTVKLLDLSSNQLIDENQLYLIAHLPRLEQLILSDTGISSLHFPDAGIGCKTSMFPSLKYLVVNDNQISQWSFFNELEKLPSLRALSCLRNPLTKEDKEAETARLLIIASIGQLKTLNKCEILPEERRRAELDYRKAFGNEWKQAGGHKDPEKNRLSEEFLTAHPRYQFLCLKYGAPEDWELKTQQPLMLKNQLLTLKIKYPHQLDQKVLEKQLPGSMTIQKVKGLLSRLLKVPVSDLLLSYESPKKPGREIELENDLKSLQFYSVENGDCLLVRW
UniProt Q92609: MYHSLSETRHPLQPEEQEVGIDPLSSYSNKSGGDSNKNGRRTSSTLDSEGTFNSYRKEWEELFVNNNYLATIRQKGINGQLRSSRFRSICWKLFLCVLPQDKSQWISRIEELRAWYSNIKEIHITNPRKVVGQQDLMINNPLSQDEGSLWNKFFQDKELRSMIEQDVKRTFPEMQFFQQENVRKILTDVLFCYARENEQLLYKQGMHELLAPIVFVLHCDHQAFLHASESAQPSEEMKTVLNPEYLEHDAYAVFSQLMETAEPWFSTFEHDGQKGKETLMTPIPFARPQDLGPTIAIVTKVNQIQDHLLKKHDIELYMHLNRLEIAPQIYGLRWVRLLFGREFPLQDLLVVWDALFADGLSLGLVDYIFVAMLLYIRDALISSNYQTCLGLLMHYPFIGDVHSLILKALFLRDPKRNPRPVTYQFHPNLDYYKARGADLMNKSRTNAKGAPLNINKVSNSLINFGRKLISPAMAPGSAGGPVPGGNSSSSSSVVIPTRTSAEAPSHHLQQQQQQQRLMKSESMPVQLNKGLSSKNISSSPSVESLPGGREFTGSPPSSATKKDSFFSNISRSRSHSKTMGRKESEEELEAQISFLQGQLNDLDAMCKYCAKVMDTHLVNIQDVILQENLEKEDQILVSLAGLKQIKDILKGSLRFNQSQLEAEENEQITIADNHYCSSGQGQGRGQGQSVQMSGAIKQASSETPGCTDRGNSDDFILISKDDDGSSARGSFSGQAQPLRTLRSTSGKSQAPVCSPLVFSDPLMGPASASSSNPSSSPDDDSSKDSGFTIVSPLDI
UniProt P10646, whole entry, looked up: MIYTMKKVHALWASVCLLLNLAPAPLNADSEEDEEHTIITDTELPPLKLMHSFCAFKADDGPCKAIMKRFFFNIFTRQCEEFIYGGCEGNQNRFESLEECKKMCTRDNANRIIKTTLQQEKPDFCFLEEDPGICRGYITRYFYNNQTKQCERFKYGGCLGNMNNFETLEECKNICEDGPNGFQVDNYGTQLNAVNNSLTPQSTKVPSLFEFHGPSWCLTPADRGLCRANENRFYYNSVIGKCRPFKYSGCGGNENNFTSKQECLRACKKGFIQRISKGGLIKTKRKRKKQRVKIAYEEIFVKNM
UniProt O60907: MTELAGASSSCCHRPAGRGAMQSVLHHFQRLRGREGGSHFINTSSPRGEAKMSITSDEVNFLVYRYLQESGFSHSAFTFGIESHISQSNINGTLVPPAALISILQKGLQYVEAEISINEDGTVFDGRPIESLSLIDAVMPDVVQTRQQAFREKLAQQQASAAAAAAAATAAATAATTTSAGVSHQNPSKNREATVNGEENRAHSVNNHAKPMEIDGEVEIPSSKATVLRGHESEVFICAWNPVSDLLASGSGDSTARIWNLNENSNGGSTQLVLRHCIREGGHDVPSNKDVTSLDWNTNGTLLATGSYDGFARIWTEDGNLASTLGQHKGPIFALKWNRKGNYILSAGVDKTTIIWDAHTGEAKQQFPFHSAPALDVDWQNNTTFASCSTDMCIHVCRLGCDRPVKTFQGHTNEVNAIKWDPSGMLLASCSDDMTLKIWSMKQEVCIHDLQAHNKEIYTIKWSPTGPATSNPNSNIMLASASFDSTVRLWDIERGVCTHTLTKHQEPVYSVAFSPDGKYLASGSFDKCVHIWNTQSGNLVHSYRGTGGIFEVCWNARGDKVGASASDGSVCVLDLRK
UniProt Q8WUA7: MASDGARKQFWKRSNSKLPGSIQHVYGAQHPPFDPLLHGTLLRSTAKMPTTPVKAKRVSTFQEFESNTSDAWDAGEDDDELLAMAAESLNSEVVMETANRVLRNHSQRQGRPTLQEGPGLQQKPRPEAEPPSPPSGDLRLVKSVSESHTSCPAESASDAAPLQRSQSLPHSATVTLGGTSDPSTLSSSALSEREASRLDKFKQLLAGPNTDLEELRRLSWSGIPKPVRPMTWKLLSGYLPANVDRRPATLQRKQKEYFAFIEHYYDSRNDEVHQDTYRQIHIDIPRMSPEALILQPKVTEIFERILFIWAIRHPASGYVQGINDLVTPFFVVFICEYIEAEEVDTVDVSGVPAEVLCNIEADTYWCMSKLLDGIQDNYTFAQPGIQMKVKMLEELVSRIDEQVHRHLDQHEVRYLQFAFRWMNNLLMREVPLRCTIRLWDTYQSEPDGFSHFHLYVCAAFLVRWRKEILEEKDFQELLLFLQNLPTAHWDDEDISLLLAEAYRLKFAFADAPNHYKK
UniProt Q9BYX2: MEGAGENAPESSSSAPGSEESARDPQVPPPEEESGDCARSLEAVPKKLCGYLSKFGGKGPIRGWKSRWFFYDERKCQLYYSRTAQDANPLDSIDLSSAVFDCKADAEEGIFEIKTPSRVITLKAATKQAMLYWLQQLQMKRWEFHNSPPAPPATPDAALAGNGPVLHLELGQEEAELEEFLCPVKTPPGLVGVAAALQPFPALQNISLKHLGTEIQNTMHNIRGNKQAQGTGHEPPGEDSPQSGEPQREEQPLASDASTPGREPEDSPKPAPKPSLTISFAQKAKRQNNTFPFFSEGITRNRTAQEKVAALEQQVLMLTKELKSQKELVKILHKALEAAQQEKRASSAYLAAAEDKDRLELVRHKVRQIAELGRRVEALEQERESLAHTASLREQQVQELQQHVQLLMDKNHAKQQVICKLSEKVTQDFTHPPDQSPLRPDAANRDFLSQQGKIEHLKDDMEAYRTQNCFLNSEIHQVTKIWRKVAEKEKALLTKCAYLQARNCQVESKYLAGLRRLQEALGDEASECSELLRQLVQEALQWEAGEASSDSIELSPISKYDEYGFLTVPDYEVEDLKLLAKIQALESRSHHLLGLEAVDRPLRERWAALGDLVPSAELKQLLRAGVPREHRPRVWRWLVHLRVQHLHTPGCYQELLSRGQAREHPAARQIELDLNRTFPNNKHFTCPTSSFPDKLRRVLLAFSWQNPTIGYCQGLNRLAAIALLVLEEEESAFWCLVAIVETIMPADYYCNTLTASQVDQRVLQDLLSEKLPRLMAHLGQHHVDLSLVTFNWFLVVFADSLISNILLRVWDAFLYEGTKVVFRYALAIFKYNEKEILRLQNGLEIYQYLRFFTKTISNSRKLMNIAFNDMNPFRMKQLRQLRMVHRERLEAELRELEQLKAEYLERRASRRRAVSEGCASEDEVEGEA
UniProt Q15633: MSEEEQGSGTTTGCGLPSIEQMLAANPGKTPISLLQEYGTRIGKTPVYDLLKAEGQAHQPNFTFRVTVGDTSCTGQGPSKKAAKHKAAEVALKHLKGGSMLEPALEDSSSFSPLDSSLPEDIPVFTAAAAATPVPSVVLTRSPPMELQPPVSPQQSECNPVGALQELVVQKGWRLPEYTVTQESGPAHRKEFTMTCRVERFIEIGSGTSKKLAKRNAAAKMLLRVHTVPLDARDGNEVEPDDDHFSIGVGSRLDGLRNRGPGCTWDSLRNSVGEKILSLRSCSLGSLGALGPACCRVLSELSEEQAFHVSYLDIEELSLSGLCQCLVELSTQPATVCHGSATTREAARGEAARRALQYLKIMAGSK

[2] = compound: C/C(=N\NC(=O)C1=CC(=CC=C1)S(=O)(=O)N2CCOCC2)/C3=C(C=CC(=C3)Cl)O
How it was run: as §1

[3] = compound: C1=CC(=CC=C1C2=NC3=C(N2)C=C(C=C3)C(=O)N)OC4=CC=C(C=C4)Cl
How it was run: as §1

[4] = compound: C1=CC2=C(C=CC(=C2)/C=C\3/C(=O)NC(=NCC4=CC=CS4)S3)N=C1
How it was run: as §1

[5] = compound: C1=CC2=NC=CN=C2C=C1/C=C/3\C(=O)NC(=O)S3
How it was run: as §1

[6] = compound: C1=CC=C(C=C1)C2=NC(=C(N2)C3=CC=NC=C3)C4=CC(=C(C=C4)Cl)O
How it was run: as §1

[7] = compound: C1=CC=C2C(=C1)C3=NNC4=CC=CC(=C43)C2=O
How it was run: as §1

[8] = compound: C1CCN(C1)C(=O)NC2=CC=CC(=C2)NC3=NC=C(C(=N3)NCCC4=CN=CN4)Br
How it was run: as §1

[9] = compound: C1CN(CCC1(CC2=CC=C(C=C2)Cl)N)C3=NC=NC4=C3C=CN4
How it was run: as §1

[10] = compound: C1COCCN1CCN2C3=CC=CC=C3N=C2NC(=O)C4=CC(=CC=C4)[N+](=O)[O-] [IRAK-1-4 Inhibitor I]
How it was run: as §1

Measured: log2 fold change

TFB1M (UniProt Q8WVM0)
inactive: [1] 0.011 | [2] 0.009 | [3] 0.01 | [4] 0.013 | [5] -0.095 | [6] -0.041 | [7] -0.061 | [8] -0.006 | [9] 0.05 | [10] 0.005

TAGLN2 isoform 2 (UniProt P37802)
inactive: [1] -0.008 | [2] 0.038 | [3] 0.049 | [4] -0.016 | [5] 0.001 | [6] 0 | [7] 0.019 | [8] -0.002 | [9] 0.021 | [10] 0.002

TARS1 (UniProt P26639)
inactive: [1] -0.022 | [2] -0.013 | [3] -0.012 | [4] 0.021 | [5] -0.008 | [6] 0.004 | [7] 0.013 | [8] -0.005 | [9] 0.005 | [10] -0.003

TFR2 (UniProt Q9UP52)
inactive: [1] -0.019 | [2] -0.011 | [3] 0.032 | [4] -0.014 | [5] -0.022 | [6] 0.004 | [7] -0.011 | [8] -0.023 | [9] -0.022 | [10] 0.023

TBC1D17 (UniProt Q9HA65)
inactive: [1] 0 | [2] 0.026 | [3] 0.002 | [4] 0.109 | [5] -0.024 | [6] 0.006 | [7] -0.038 | [8] 0.004 | [9] -0.044 | [10] 0.023

TBCB (UniProt Q99426)
inactive: [1] -0.011 | [2] -0.026 | [3] 0.023 | [4] 0.01 | [5] -0.017 | [6] -0.014 | [7] -0.024 | [8] -0.002 | [9] 0.035 | [10] 0.007

TFAM (UniProt Q00059)
inactive: [1] -0.025 | [2] 0.029 | [3] -0.022 | [4] 0.031 | [5] -0.011 | [6] 0.014 | [7] -0.03 | [8] 0.039 | [9] -0.004 | [10] -0.009

TBL2 (UniProt Q9Y4P3)
inactive: [1] -0.019 | [2] 0.061 | [3] -0.027 | [4] 0.061 | [5] -0.023 | [6] 0.038 | [7] -0.06 | [8] -0.027 | [9] 0.001 | [10] -0.022

TGFB1 (UniProt P01137)
inactive: [1] -0.024 | [2] 0.014 | [3] 0.035 | [4] 0 | [5] -0.005 | [6] -0.017 | [7] 0.013 | [8] -0.008 | [9] 0.025 | [10] -0.009

TARSL2 (UniProt A2RTX5)
inactive: [1] -0.018 | [2] -0.056 | [3] 0.029 | [4] 0.028 | [5] -0.008 | [6] -0.004 | [7] -0.027 | [8] -0.007 | [9] 0.012 | [10] -0.002

TBCE (UniProt Q15813)
inactive: [1] 0.02 | [2] 0.049 | [3] -0.016 | [4] 0.004 | [5] 0.014 | [6] 0.001 | [7] -0.07 | [8] -0.027 | [9] 0.038 | [10] -0.002

TBC1D5 isoform 2 (UniProt Q92609)
inactive: [1] -0.03 | [2] -0.145 | [3] 0.009 | [4] 0.007 | [5] 0.009 | [6] 0.02 | [7] -0.028 | [8] 0.022 | [9] -0.003 | [10] 0

TBC1D4 (UniProt O60343)
inactive: [1] 0.025 | [2] 0.014 | [3] 0.019 | [4] 0.022 | [5] -0.017 | [6] -0.013 | [7] -0.024 | [8] -0.002 | [9] -0.02 | [10] -0.017

TBC1D10B (UniProt Q4KMP7)
inactive: [1] 0.028 | [2] -0.101 | [3] 0.038 | [4] 0.02 | [5] -0.019 | [6] -0.015 | [7] 0.022 | [8] 0.004 | [9] 0.045 | [10] -0.024

TCIRG1 (UniProt Q13488)
inactive: [1] 0.018 | [2] 0.145 | [3] 0.145 | [4] 0.028 | [5] -0.028 | [6] 0.012 | [7] -0.008 | [8] -0.027 | [9] -0.145 | [10] -0.033

TEX10 (UniProt Q9NXF1)
inactive: [1] 0.027 | [2] -0.022 | [3] 0.17 | [4] -0.004 | [5] 0.053 | [6] 0.019 | [7] -0.025 | [8] 0.005 | [9] -0.039 | [10] 0.072

Reprinted at random: 2 records from the list, in no set order.
TBC1D10B (UniProt Q4KMP7)
inactive: [1] 0.028 | [2] -0.101 | [3] 0.038 | [4] 0.02 | [5] -0.019 | [6] -0.015 | [7] 0.022 | [8] 0.004 | [9] 0.045 | [10] -0.024

TBL2 (UniProt Q9Y4P3)
inactive: [1] -0.019 | [2] 0.061 | [3] -0.027 | [4] 0.061 | [5] -0.023 | [6] 0.038 | [7] -0.06 | [8] -0.027 | [9] 0.001 | [10] -0.022

Further results follow.

TERF2 (UniProt Q15554)
inactive: [1] -0.002 | [2] -0.019 | [3] -0.008 | [4] 0.039 | [5] 0.006 | [6] -0.016 | [7] -0.018 | [8] 0.042 | [9] -0.073 | [10] 0.023

TFPI (UniProt P10646)
inactive: [1] -0.069 | [2] 0.093 | [3] 0.011 | [4] 0.089 | [5] -0.141 | [6] -0.02 | [7] -0.232 | [8] -0.096 | [9] 0.065 | [10] 0.003

TEX264 (UniProt Q9Y6I9)
inactive: [1] -0.047 | [2] -0.142 | [3] -0.048 | [4] 0.162 | [5] 0.017 | [6] 0.263 | [7] 0.228 | [8] -0.009 | [9] -0.131 | [10] 0.029

TBL1X (UniProt O60907)
inactive: [1] 0.011 | [2] 0.04 | [3] 0.025 | [4] 0.033 | [5] -0.03 | [6] -0.044 | [7] 0.013 | [8] -0.001 | [9] 0.003 | [10] -0.059

TBC1D22A (UniProt Q8WUA7)
inactive: [1] -0.028 | [2] 0.023 | [3] -0.068 | [4] -0.005 | [5] -0.017 | [6] 0.002 | [7] 0.016 | [8] -0.019 | [9] -0.034 | [10] -0.023

TAF6L (UniProt Q9Y6J9)
inactive: [1] -0.013 | [2] 0.174 | [3] -0.077 | [4] 0.005 | [5] 0.025 | [6] 0.055 | [7] 0.055 | [8] 0.022 | [9] -0.104 | [10] 0.051

TEX2 isoform 2 (UniProt Q8IWB9)
inactive: [1] -0.065 | [2] -0.327 | [3] 0.095 | [4] 0.09 | [5] -0.063 | [6] 0.141 | [7] -0.033 | [8] -0.018 | [9] 0.088 | [10] -0.046

TARS2 (UniProt Q9BW92)
inactive: [1] 0.001 | [2] -0.063 | [3] -0.026 | [4] 0.017 | [5] -0.017 | [6] 0.023 | [7] 0.002 | [8] -0.011 | [9] 0.015 | [10] 0.009

TBC1D2 (UniProt Q9BYX2)
inactive: [1] 0.029 | [2] -0.033 | [3] 0.048 | [4] -0.006 | [5] -0.031 | [6] 0.003 | [7] -0.002 | [8] -0.008 | [9] 0.041 | [10] 0.038

TBCD (UniProt Q9BTW9)
inactive: [1] 0.02 | [2] -0.043 | [3] 0.01 | [4] 0.006 | [5] 0.023 | [6] -0.011 | [7] -0.049 | [8] -0.003 | [9] -0.013 | [10] 0.013

TARBP2 (UniProt Q15633)
inactive: [1] 0.03 | [2] -0.095 | [3] -0.066 | [4] -0.026 | [5] 0.007 | [6] 0.027 | [7] -0.029 | [8] 0.012 | [9] -0.002 | [10] 0.011

TAL1 (UniProt P17542)
inactive: [1] 0.035 | [2] 0.033 | [3] 0.02 | [4] -0.023 | [5] -0.013 | [6] -0.032 | [7] -0.022 | [8] 0.031 | [9] 0.026 | [10] -0.017

TCP1 (UniProt P17987)
inactive: [1] 0.007 | [2] 0.004 | [3] 0.011 | [4] -0.007 | [5] -0.009 | [6] 0.005 | [7] 0.018 | [8] 0.002 | [9] -0.01 | [10] 0.009

TBRG4 (UniProt Q969Z0)
inactive: [1] 0.033 | [2] -0.048 | [3] -0.036 | [4] 0.001 | [5] 0.013 | [6] -0.044 | [7] -0.031 | [8] 0.013 | [9] 0.008 | [10] -0.009

Reference: the supplement of paper PMC10849652
